Results are given in words; binding and its absence hold for the method and conditions named. In cells and extracts the contact can be indirect. A yes stands for co-enrichment or nearness to the bait. Other partners may have been found. Where a sequence is shown, tags or fusion partners need not be part of it.
T1: Enp1-TAP (Enp1 harboring a C-terminal Tandem Affinity Purification tag) (S. cerevisiae) (UniProt P38333)
T1 sequence: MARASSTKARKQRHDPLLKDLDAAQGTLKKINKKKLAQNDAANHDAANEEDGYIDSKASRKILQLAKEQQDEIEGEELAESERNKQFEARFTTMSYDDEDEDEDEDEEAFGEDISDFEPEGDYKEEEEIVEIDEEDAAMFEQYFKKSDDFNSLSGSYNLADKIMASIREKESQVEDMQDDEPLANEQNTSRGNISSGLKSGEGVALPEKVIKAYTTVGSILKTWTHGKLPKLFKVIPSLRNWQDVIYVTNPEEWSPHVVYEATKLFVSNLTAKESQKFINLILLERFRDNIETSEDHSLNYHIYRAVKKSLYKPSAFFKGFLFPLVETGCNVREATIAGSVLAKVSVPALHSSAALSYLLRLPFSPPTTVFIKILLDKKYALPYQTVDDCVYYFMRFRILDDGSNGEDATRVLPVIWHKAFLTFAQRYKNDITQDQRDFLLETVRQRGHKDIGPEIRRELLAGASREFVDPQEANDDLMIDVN

B1: Noc4 (protein, UniProt Q06512 1-552)
chain: MVLLISEIKDIAKRLTAAGDRKQYNSIIKLINELVIPENVTQLEEDETEKNLRFLVMSLFQIFRKLFSRGDLTLPSSKKSTLEKEQFVNWCRKVYEAFKTKLLAIISDIPFETSLGLDSLDVYLQLAELESTHFASEKGAPFFPNKTFRKLIIALWSSNMGEIEDVKSSGASENLIIVEFTEKYYTKFADIQYYFQSEFNQLLEDPAYQDLLLKNVGKWLALVNHDKHCSSVDADLEIFVPNPPQAIENESKFKSNFEKNWLSLLNGQLSLQQYKSILLILHKRIIPHFHTPTKLMDFLTDSYNLQSSNKNAGVVPILALNGLFELMKRFNLEYPNFYMKLYQIINPDLMHVKYRARFFRLMDVFLSSTHLSAHLVASFIKKLARLTLESPPSAIVTVIPFIYNLIRKHPNCMIMLHNPAFISNPFQTPDQVANLKTLKENYVDPFDVHESDPELTHALDSSLWELASLMEHYHPNVATLAKIFAQPFKKLSYNMEDFLDWNYDSLLNAESSRKLKTLPTLEFEAFTNVFDNEDGDSEASSQGNVYLPGVAW
B2: Rrp12 (protein, UniProt Q12754 1-1228)
chain: MDQDKVAFLLELEDKLAKIRSQVNSKLENQKHIAIILTAVEENIAGQATNDVSKNIVNYIISFMSLLDQAVDPSTHEIKDIQLASSSTYLLDLIFHYSPKVLLRSKFSEILTKIAPCITAEKANAPLIRAAIGCLESLLIAQDAQAWNNTYDLNVTPKRGLQGILELSLDVRPKVRKRALDAVHAVLLNPPVAPTAEHVAAVFVADFCDKQLAGILNDLSNLSNKQLKAQKTKEDINASVMRSLRLITSVVSTGQWPSSQIEPLCDVLLGVTKSSEQYLVSASFECFESMFKTMAETTISSGLAENKYLRVLDTIFALKPSNVDTLLTKSWIAVVIKGMSTYATHQPLKALRKIPGVFHIMCTYLASETPEVYQAASQCLISILSESVKDDLLLYTPSVDEKVFKNVDEIISQIAKTFIDFLSIRYSHCSREILKILVAAFNKFRYRSNPHFLKSLKIVDTWRVNEEQFMDLRNEIELVIGASISAMGPEMILAEAPLNLDNPSSERPGRAWLLPLIRDYTKNANLATFQNELAPYIKSFQSKFDKVPEESIQLRVFQTIVDQIWSTLPRFCELPMDLRESFTDEFASELSSLLYSEVELRTTICHALKVLAESNVSYAEESSSHNVLLLQRFPISEAQKNIEYLSTKSTNLLAVLFNVYTQTTPNARSYILETIDQYLKITSKEDLEKTFNNVCGLLKNSMNEESSGNVNKEKKKPQLTATLLDLIICMITYLPVSSYSALFSMFSLTVNSADALIQKRAYRIITKLSELKSGSTAVAQFISDIENVMVDSASSVQTSAKAARLTAIKTIVELLPLDHLDFIVRTVAEVILSTKDVNEKSRETAFDTLICMGRKMNEPNGIIKLFQIPGYDPTTPDQSSSISEFFKIISAGLIGESQHMVSSSITGYACLVFEFKNELDSGILMDIYDTIELYLTSNSREIVKSAIGFTKVCVLGLPEELMRPKVPELLLKLLRWSHEHTGHFKAKVKHIIERLIRRFGYDYIEANFPEEDRRLLTNIRKMRNRNKRKDEEVTTGVSDVAATKGSRFMSAFDEAVYGSDEENDNGSDQEENVAGGKMKNGAKQFIVESGDNPLDLLDSQTLAHISSTRPKKFNKNQNRARFNDDAFNFDSEGKLVVKGQPKPSTNVDDPLSAVTSGINAYLEAVKSGPVRGQRNKLKFRKNGKDSDEFGDDDDGEKDSRLMRGRVNQGNKIGKHNKKGPKFKSRKKL
B3: Bfr2 (protein, UniProt Q06631 1-534)
chain: MEKSLADQISDIAIKPVNKDFDIEDEENASLFQHNEKNGESDLSDYGNSNTEETKKAHYLEVEKSKLRAEKGLELNDPKYTGVKGSRQALYEEVSENEDEEEEEEEEEEKEEDALSFRTDSEDEEVEIDEEESDADGGETEEAQQKRHALSKLIQQETKQAINKLSQSVQRDASKGYSILQQTKLFDNIIDLRIKLQKAVIAANKLPLTTESWEEAKMDDSEETKRLLKENEKLFNNLFNRLINFRIKFQLGDHITQNEEVAKHKLSKKRSLKELYQETNSLDSELKEYRTAVLNKWSTKVSSASGNAALSSNKFKAINLPADVQVENQLSDMSRLMKRTKLNRRNITPLYFQKDCANGRLPELISPVVKDSVDDNENSDDGLDIPKNYDPRRKDNNAIDITENPYVFDDEDFYRVLLNDLIDKKISNAHNSESAAITITSTNARSNNKLKKNIDTKASKGRKLNYSVQDPIANYEAPITSGYKWSDDQIDEFFAGLLGQRVNFNENEDEEQHARIENDEELEAVKNDDIQIFG
B4: Lcp5 (protein, UniProt P40079 1-357)
chain: MSELNALLKDINGSLTATSESLERLSGIYSNSATDEIPESNQLHEHLFYDAKKPAEKVSLLSLKNGSMLGYINSLLMLIGNRLDDECKDPSAMDARERSIQHRVVLERGVKPLEKKLAYQLDKLTRAYVKMEKEYKDAEKRALEKSTLVNHSGNDDSEDDESSEDEIAYRPNTSGIINTNKKSSAYRVEETAKQENGEENDDNETGVYKPPKITAVLPPQQTHFEDRFDAREHKDRSNKSRMQAMEEYIRESSDQPDWSASIGADIVNHGRGGIKSLRDTEKERRVTSFEEDNFTRLNITNKAEKRKQKQRERNARMNVIGGEDFGIFSSKRKLEDSTSRRGAKKTRSAWDRAQRRL
B5: Mrd1 (protein, UniProt Q06106 1-887)
chain: MSRIIVKGLPVYLTDDNLREHFTKRLRQKHSHQAVNGSGPDLITDVKILRDRNGESRRFGFIGYRNEEDAFDAVEYFNGSFINTSKIEVSMAKSFADPRVPQPMKEKRREALKRFREKEEKLLQEENRKKKKVDENKHSNIDDEIRKNKQLQEFMETMKPSSQVTSWEKVGIDKSIEDEKLKREEEDSSVQGNSLLAHALALKEENNKDEAPNLVIENESDDEYSALNRNRDEDQEDAGEEEKMISISNLKDTDIGLVNDDANSDEKENEKRRNLAQDEKVSDLDWFKQRRVRIKESEAETREKSSSYATEQNESLDTKKEEQPERAVPQKTDEELAIEKINQTGRLFLRNILYTSKEEDFRKLFSPFGELEEVHVALDTRTGQSKGFAYVLFKDSKNAVNAYVELDKQIFQGRLLHILPGEEKKSHRLDEFDLKNMPLKKQKELKRKAAASRQTFSWNSLYMNQDAVLGSVAAKLGLEKSQLIDAENSSSAVKQALAEAHVIGDVRKYFESKGVDLTKFSQLKSTNQRDDKVILVKNFPFGTTREELGEMFLPYGKLERLLMPPAGTIAIVQFRDTTSARAAFTKLSYKRFKDGIIYLERGPKDCFTKPAEADDLINNTSAKEEENPVEVKPSSNDLMEANKDVTEGSSNAHDEDVIDGPTVSIFIKNLNFSTTNQNLTDRFKVFTGFVVAQVKTKPDPKHQGKTLSMGFGFVEFRTKEQANAVIAAMDGTVIDGHKIQLKLSHRQASQSGNTKTKSNKKSGKIIVKNLPFEATRKDVFELFNSFGQLKSVRVPKKFDKSARGFAFVEFLLPKEAENAMDQLHGVHLLGRRLVMQYAEEDAVDAEEEIARMTKKVRKQVATNEMAALRNGGGRKKLDVDDEENEGF
B6: Slx9 (protein, UniProt P53251 1-210)
chain: MVAKKRNTLRSKVSARNSQNFGPDVANNGILDESYDIESDPRAFLHQPKETKKEKLLNRQNTFLSNLKGKSTLNDGIAANFDGISKSSIRRRKRKLREELKPRMQDLLTSLEQEKDLRGIIENSSKDMNNDDDIDMDSKIRFVDTKEMNLKKIEPGSVRIKKNQPNIRNQKGAKALAANETARFNQVLTNQDFQKNPFGALREVIKLQKQ
B7: Rio1 (protein, UniProt Q12196 1-484)
chain: MSLEDKFDSLSVSQGASDHINNQLLEKYSHKIKTDELSFSRAKTSKDKANRATVENVLDPRTMRFLKSMVTRGVIADLNGCLSTGKEANVYHAFAGTGKAPVIDEETGQYEVLETDGSRAEYAIKIYKTSILVFKDRERYVDGEFRFRNSRSQHNPRKMIKIWAEKEFRNLKRIYQSGVIPAPKPIEVKNNVLVMEFLSRGNGFASPKLKDYPYKNRDEIFHYYHTMVAYMRLLYQVCRLVHADLSEYNTIVHDDKLYMIDVSQSVEPEHPMSLDFLRMDIKNVNLYFEKMGISIFPERVIFQFVISETLEKFKGDYNNISALVAYIASNLPIKSTEQDEAEDEIFRSLHLVRSLGGLEERDFDRYTDGKFDLLKSLIAHDNERNFAASEQFEFDNADHECSSGTEEFSDDEEDGSSGSEEDDEEEGEYYDDDEPKVLKGKKHEDKDLKKLRKQEAKDAKREKRKTKVKKHIKKKLVKKTKSKK

target: T1, Enp1-TAP (Enp1 harboring a C-terminal Tandem Affinity Purification tag) (S. cerevisiae); test: affinity purification with mass spectrometry

binding, binds:
B1
B2
B3
B4
B5
B6
B7

Source: paper doi:10.1101/2020.02.05.936237
